Reference: PMC10997842
These are yes or no findings as the source states them, for the method shown. In cells and extracts the contact can be indirect. Some binding calls cover weakened binding; strength is not graded here.

Protein sequences, listed by entry. Tags and fused reporters are not part of them.
UniProt Q14203: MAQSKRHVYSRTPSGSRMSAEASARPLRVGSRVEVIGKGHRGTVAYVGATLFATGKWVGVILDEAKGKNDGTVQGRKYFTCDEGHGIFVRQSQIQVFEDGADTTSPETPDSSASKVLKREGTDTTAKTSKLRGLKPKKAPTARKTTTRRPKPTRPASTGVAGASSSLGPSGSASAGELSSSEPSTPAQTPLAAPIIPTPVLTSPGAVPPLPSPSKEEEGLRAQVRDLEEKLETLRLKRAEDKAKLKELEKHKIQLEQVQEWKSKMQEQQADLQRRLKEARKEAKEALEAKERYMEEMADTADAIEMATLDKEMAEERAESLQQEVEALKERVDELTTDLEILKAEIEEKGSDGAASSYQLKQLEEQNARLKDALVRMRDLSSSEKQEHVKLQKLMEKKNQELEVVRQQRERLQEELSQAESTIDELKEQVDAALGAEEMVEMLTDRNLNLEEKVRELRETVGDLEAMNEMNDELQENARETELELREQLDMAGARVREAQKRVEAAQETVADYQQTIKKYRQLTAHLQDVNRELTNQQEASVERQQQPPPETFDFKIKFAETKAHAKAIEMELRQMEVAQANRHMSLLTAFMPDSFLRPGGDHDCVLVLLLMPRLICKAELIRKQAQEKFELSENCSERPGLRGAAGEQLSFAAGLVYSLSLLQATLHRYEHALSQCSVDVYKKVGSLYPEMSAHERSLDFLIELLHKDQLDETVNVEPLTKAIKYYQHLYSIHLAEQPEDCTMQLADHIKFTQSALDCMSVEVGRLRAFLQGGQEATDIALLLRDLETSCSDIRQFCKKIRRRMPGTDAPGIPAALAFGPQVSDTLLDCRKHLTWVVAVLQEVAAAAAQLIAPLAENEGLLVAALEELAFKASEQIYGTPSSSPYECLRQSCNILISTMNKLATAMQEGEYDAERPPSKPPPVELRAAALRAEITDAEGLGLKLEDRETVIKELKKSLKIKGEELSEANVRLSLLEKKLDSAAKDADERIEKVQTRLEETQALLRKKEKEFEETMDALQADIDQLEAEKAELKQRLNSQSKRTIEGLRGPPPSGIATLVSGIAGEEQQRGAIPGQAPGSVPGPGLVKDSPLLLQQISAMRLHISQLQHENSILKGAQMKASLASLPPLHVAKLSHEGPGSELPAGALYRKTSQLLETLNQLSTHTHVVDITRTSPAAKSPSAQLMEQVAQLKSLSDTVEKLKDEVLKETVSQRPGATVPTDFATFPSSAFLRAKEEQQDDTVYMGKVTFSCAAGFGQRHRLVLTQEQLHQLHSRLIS
UniProt Q07866: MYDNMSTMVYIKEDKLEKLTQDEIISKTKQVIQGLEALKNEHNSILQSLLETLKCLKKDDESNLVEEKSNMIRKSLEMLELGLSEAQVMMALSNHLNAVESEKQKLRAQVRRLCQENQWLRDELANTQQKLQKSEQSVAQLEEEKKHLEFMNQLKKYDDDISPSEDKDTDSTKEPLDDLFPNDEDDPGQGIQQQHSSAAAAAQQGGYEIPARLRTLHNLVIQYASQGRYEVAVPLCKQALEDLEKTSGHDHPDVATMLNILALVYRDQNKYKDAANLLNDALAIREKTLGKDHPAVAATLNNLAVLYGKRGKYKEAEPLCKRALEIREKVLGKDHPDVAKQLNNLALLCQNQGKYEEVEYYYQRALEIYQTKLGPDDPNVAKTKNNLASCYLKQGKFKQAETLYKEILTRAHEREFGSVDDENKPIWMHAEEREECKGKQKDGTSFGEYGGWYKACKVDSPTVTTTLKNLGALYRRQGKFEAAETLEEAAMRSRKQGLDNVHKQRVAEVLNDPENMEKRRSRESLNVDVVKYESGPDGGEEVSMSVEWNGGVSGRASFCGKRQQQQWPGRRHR

Columns and labels:
[1] = molecular target: dynactin-1 (DCTN1) (human (endogenous in SH-SY5Y and in hiPSC-derived hNPCs)) (UniProt Q14203); experiment: co-IP; lysates of differentiated SH-SY5Y cells transduced with APPwt or APPswe; IP with antibody against DCTN1 or KLC1, blots for APP, DCTN1, KLC1
[2] = molecular target: kinesin light chain 1 (KLC1) (human (endogenous in SH-SY5Y)) (UniProt Q07866); experiment: as above
[3] = molecular target: endogenous amyloid precursor protein carrying the Swedish variant, of neural progenitors from a FAD patient (human (endogenous in hiPSC-derived hNPCs)) (UniProt P05067); experiment: co-IP; lysates of hNPCs differentiated from hiPSCs of a healthy subject or a FAD APPswe patient; IP with an antibody against APP or an IgG isotype control, blots for APP and DCTN1
[4] = molecular target: endogenous amyloid precursor protein of neural progenitors from a healthy subject (human (endogenous in hiPSC-derived hNPCs)) (UniProt P05067); experiment: as above
[5] = molecular target: APP harboring the Swedish KM670/671NL FAD variant linked to turbo red fluorescent protein (APPswe-tRFP) (UniProt P05067); experiment: co-IP; lysates of 20 DIV differentiated SH-SY5Y cells transduced with tagged APPwt or APPswe; IP against the GFP or tRFP tag of APP (magnetic beads), blots for APP, DCTN1, KLC1; also after DMSO or 10 or 40 uM beta-site APP-cleaving enzyme inhibitor
[6] = molecular target: WT amyloid precursor protein linked to GFP (APPwt-GFP) (UniProt P05067); experiment: as above
[7] = molecular target: WT amyloid precursor protein linked to turbo red fluorescent protein (APPwt-tRFP) (UniProt P05067); experiment: as above

Measured: binding

APP harboring the Swedish KM670/671NL FAD variant linked to turbo red fluorescent protein (APPswe-tRFP) (from UniProt P05067 18-770)
binds: [1] | [2]

WT amyloid precursor protein linked to GFP (APPwt-GFP) (from UniProt P05067 18-770)
binds: [1] | [2]

dynactin-1 (DCTN1) (from UniProt Q14203 1-1278)
not listed: [1] | [2]
binds: all other assays above

kinesin light chain 1 (KLC1) (from UniProt Q07866 1-573)
binds: [5] | [6] | [7]
